Results deposited as PubChem BioAssay AID1508587 (Peter MacCallum Cancer Centre, 2020)

Assay: 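Knockdowns that add to vemurafenib's cut in melanoma glycolysis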 (follow-up of hits)
Cells: human WM266.4 melanoma cells with a BRAF V600 mutation
Knock-down reagent: single siRNA against human genes, 25 nM
Time to read-out: 96 h
Conditions: vemurafenib 300 nM (about IC25), given 48 h after transfection for 48 h
Detection: 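Per-cell lactate from absorbance divided by DAPI nucleus counts, compared with and without vemurafenib, relative to non-targeting siRNA, mean of 2 replicates; nuclear counts also give cell number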
Direction: lactate per cell, drug vs no drug: higher = less drug-induced drop in lactate per cell; lactate per cell with vemurafenib: higher = more lactate per cell under drug; lactate per cell without drug: higher = more lactate per cell without drug; cell growth with vemurafenib and cell growth without drug: higher = more cell growth over 48 h
Rule for the call: 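Enhancer call for any duplex whose drug versus no-drug per-cell lactate ratio is below 0.55 (2 SD beneath non-targeting average); genes confirmed when at least 2 of their 4 duplexes qualify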
Shown is an unselected part of about 1,600 reagents tested. In the full data, 623 (39%) got an active call. 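Calls are for each duplex; lactate ratios contain extreme outliers.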 Reagents against one gene are numbered here. No sequences are given here.

| gene | reagent no. | lactate per cell, drug vs no drug | lactate per cell with vemurafenib | lactate per cell without drug | cell growth with vemurafenib | cell growth without drug | activity call |
| --- | --- | --- | --- | --- | --- | --- | --- |
| A1BG | 1 | 0.78 | 2.84 | 2.54 | 0.28 | 0.2 | inactive |
| A1BG | 2 | 0.82 | 1.21 | 1.04 | 0.59 | 0.54 | inactive |
| A1BG | 3 | 0.49 | 0.9 | 1.25 | 0.88 | 0.63 | active |
| A1BG | 4 | 1.02 | 2.38 | 1.58 | 0.19 | 0.32 | inactive |
| CRLF1 | 1 | 1.16 | 2.91 | 1.67 | -0.16 | 0.06 | inactive |
| CRLF1 | 2 | 0.66 | 1.46 | 1.47 | 0.48 | 0.3 | inactive |
| CRLF1 | 3 | 0.44 | 5.6 | 8.41 | -0.07 | -0.12 | active |
| CRLF1 | 4 | 0.96 | 3.38 | 2.31 | 0.16 | 0.22 | inactive |
| PAEP | 1 | 0.48 | 1.09 | 1.38 | 0.23 | 0.06 | active |
| PAEP | 2 | 0.72 | 1.39 | 1.18 | 0.8 | 0.67 | inactive |
| PAEP | 3 | 0.52 | 0.56 | 0.64 | 0.94 | 1.1 | active |
| PAEP | 4 | 0.41 | 1.18 | 1.7 | 0.3 | 0.27 | active |
| PRXL2C | 1 | 0.6 | 1.42 | 1.64 | 0.65 | 0.38 | inactive |
| PRXL2C | 2 | 0.64 | 1.88 | 2 | 0.26 | 0.19 | inactive |
| PRXL2C | 3 | 1.06 | 2.66 | 1.79 | -0.09 | 0.04 | inactive |
| PRXL2C | 4 | 0.52 | 0.84 | 1.1 | 0.18 | 0.09 | active |
| IQGAP2 | 1 | 0.68 | 1.81 | 1.57 | 0.29 | 0.37 | inactive |
| IQGAP2 | 2 | 0.44 | 0.92 | 1.23 | 0.74 | 0.6 | active |
| IQGAP2 | 3 | 0.68 | 0.98 | 0.86 | 0.78 | 1.08 | inactive |
| IQGAP2 | 4 | 0.5 | 0.76 | 0.9 | 0.68 | 0.91 | active |
| APLN | 1 | 0.84 | 3.44 | 2.68 | 0.18 | 0.2 | inactive |
| APLN | 2 | 0.51 | 2.81 | 3.48 | 0.05 | -0.05 | active |
| APLN | 3 | 0.8 | 2.16 | 1.69 | 0.3 | 0.29 | inactive |
| APLN | 4 | 0.6 | 1.4 | 1.44 | 0.12 | 0.23 | inactive |
| YTHDF2 | 1 | 0.63 | 1.8 | 1.79 | 0.49 | 0.38 | inactive |
| YTHDF2 | 2 | 0.46 | 1.1 | 1.47 | 0.57 | 0.4 | active |
| YTHDF2 | 3 | 0.73 | 1.17 | 1.02 | 0.3 | 0.43 | inactive |
| YTHDF2 | 4 | 0.3 | 1.34 | 2.88 | 0.05 | -0.03 | active |

Copied from the list.
PRXL2C #4, cell growth with vemurafenib → 0.18
Result for PRXL2C #2 under “lactate per cell, drug vs no drug”: 0.64
YTHDF2 #2, lactate per cell without drug → 1.47
Under “lactate per cell without drug”, CRLF1 #4 shows 2.31
Value for CRLF1 #2 in “cell growth without drug”: 0.3

Next results:
| gene | reagent no. | lactate per cell, drug vs no drug | lactate per cell with vemurafenib | lactate per cell without drug | cell growth with vemurafenib | cell growth without drug | activity call |
| --- | --- | --- | --- | --- | --- | --- | --- |
| CT47A8 | 1 | 0.52 | 0.86 | 1.08 | 0.97 | 0.83 | active |
| CT47A8 | 2 | 0.64 | 1.1 | 1.12 | 0.88 | 0.65 | inactive |
| CT47A8 | 3 | 0.66 | 1.84 | 1.84 | 0.33 | 0.26 | inactive |
| CT47A8 | 4 | 0.32 | 0.45 | 0.92 | 0.83 | 0.65 | active |
| CACNB1 | 1 | 0.57 | 3.54 | 3.71 | -0.07 | -0.09 | inactive |
| CACNB1 | 2 | 0.23 | 0.5 | 1.26 | 0.15 | 0.23 | active |
| CACNB1 | 3 | 0.68 | 1.56 | 1.34 | 0.33 | 0.44 | inactive |
| CACNB1 | 4 | 0.72 | 2.02 | 1.69 | 0.18 | 0.25 | inactive |
| TPR | 1 | 0.49 | 0.76 | 1.1 | 0.6 | 0.67 | active |
| TPR | 2 | 0.53 | 0.71 | 0.92 | 0.32 | 0.48 | active |
| TPR | 3 | 0.7 | 1.54 | 1.57 | 0.14 | 0.16 | inactive |
| TPR | 4 | 0.78 | 1.56 | 1.42 | 0.55 | 0.52 | inactive |
| SPDYE1 | 1 | 0.47 | 0.9 | 1.31 | 0.29 | 0.33 | active |
| SPDYE1 | 2 | 0.63 | 1.45 | 1.58 | 0.77 | 0.52 | inactive |
| SPDYE1 | 3 | 0.83 | 1.46 | 1.2 | 0.62 | 0.45 | inactive |
| SPDYE1 | 4 | 0.68 | 0.95 | 0.94 | 0.7 | 0.95 | inactive |
| ZNF271P | 1 | 0.78 | 1.56 | 1.38 | 0.25 | 0.4 | inactive |
| ZNF271P | 2 | 0.62 | 1.63 | 1.77 | 0.5 | 0.28 | inactive |
| ZNF271P | 3 | 0.4 | 0.52 | 0.92 | 0.04 | 0.46 | active |
| ZNF271P | 4 | 0.66 | 2.63 | 2.74 | 0.15 | 0.14 | inactive |
| PAPSS2 | 1 | 0.6 | 2.15 | 2.22 | 0.2 | 0.17 | inactive |
| PAPSS2 | 2 | 0.58 | 1.21 | 1.34 | 0.53 | 0.34 | inactive |
| PAPSS2 | 3 | 0.64 | 0.95 | 0.94 | 0.83 | 0.81 | inactive |
| PAPSS2 | 4 | 0.51 | 0.76 | 0.94 | 0.71 | 0.88 | active |
